## Results of single-concentration screens

The chains behind the UniProt entries cited, without tags or fusion partners. Residues count along the entry.
UniProt A4I591, 1-473: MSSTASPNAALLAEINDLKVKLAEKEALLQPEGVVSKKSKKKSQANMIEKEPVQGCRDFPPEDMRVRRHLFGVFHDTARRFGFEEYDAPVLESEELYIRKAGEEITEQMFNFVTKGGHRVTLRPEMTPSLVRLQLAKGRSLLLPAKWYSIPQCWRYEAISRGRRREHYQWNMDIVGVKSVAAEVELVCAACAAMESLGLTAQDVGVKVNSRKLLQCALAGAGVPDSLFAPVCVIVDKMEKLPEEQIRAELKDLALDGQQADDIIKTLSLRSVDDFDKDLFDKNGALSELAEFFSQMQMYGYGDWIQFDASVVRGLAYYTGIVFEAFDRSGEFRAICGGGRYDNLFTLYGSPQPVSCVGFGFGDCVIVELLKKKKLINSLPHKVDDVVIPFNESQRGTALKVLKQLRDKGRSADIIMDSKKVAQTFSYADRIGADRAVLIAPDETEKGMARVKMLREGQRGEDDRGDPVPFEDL
UniProt P9WFT3, whole entry: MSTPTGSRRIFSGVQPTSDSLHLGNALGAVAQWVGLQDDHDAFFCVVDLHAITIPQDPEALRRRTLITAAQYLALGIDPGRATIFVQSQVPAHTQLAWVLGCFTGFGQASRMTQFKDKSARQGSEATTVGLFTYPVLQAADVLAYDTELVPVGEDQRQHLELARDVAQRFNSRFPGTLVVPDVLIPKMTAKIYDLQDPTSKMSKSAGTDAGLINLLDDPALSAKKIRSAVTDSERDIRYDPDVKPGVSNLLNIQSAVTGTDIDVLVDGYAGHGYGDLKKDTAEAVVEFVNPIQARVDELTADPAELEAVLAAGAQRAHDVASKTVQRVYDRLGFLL

The filed quantity is “Percent Effect” (%). The record does not define 0% and 100%; most values in the screen are far below 50% and negative numbers occur (in some assays of this library far below -100). Compounds were drawn at random from those tested, without regard to their results. A dash means the value is not listed here; it may have been measured.

A: 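Histidine-tRNA ligase, Leishmania infantum (UniProt A4I591). Enzyme assay of histidyl-tRNA synthetase; the read-out is not stated. Concentration: 30 µM. The record gives no direction; compounds that gave an IC50 in retests scored well above the rest, so higher reads as stronger inhibition. The assay is labelled LdHisRS but filed under L. infantum. Size under these conditions: about 69,000 compounds, about 410 of them at 50% or above in at least one test.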
B: 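Whole-parasite assay of Trypanosoma brucei over 72 hours; the read-out is not stated. Compounds at 30 µM. Higher reads as stronger inhibition (inferred: compounds with an IC50 in retests scored well above the rest). Values scatter widely below zero; nearly all retest evidence comes from the higher of the two concentrations used. Size under these conditions: about 64,000 compounds, about 940 of them at 50% or above in at least one test.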
C: 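Tryptophan-tRNA ligase, Mycobacterium tuberculosis (UniProt P9WFT3). Enzyme assay of tryptophanyl-tRNA synthetase; the read-out is not stated. Concentration: 10 µM. Direction is not recorded; retested compounds ran higher, which suggests that high means inhibition. About 65,000 compounds were tested under these conditions; 0.098% (about 64) showed 50% or more at least once.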

compound	A	B	C
COCCc1noc(-c2ccc(-c3cc[nH]n3)nc2)n1	18.31	-12.55	-3.767
CO[C@H]1C[C@@H]2CN(C(=O)c3ccc(C)s3)C[C@@H]2C1	14.39	-	0.1302
Cc1ccccc1N1CCN(C2CCCN(C(=O)CCC(C)C)C2)CC1 (centres undefined)	9.091	-2.696	-1.009
COc1ccc(-c2cc(C3(O)CCCC3)on2)cc1	-4.301	-16.11	-6.083
Cc1csc(NC(=O)C2CCN(Cc3cccc4c3OCCO4)CC2)n1	7.143	5.35	-3.6
NC(=O)NC(=O)CCN(Cc1ccccc1)CC1CCOCC1	12.9	-38.3	4.983
CC(C)n1c2ccccc2c2c1cc(C(=O)N(C)C)n2C(=O)N(C)C	11.82	-66.41	-
Fc1cccc(-c2nc(CN3CCCC(Cn4cncn4)C3)co2)c1 (centres undefined)	5.357	-19.75	10.12
Cc1nc(C)n(CC2CCCN2Cc2nc3ccccc3c(=O)[nH]2)n1 (centres undefined)	-0.8696	-7.895	11.5
Cc1nc2sccn2c1C(=O)N1CCc2c(nc(N(C)C)[nH]c2=O)C1	1.333	-24.46	-4.156
O=C(c1cnccn1)N1CCC2(CC1)CCN(Cc1ccccn1)C2=O	-15.04	-	-5.109
Cc1cn2c(n1)CCC(NC(=O)c1cc(Br)cn1C)C2 (centres undefined)	6.757	-6.06	-2.28
CN(C)c1cccc(C(=O)N2CCn3c(nnc3C3CC3)C2)c1	6.993	-7.276	27.22
O=C1Nc2ccccc2CNC12CCN(CC1CC1)CC2	6.897	-	-7.001
C=Cn1ncc(CN2C[C@@H]3C[C@@H](O)CN3C[C@H]2Cc2ccccc2)c1C	16.49	-	-
CCNc1cc2c(nn1)CCN(C(=O)CC1CCCC1)C2	13.56	-	-8.94
Cc1ccnc(OCC(=O)N2CCCC2)n1	20.22	-3.336	1.908
O=C(O)c1ccn(COc2c(Cl)cccc2Cl)n1	6.173	-7.867	-1.528
Fc1ccc(CNCc2cc(Br)c3c(c2)OCO3)cc1	10.99	-6.48	0.867
COc1ccc(CN2CCC3(CC2)NC(=O)CC3c2cnn(C)c2)cc1.O=C(O)C(F)(F)F (centres undefined)	-	16.12	-
COc1cccc(N2CC3(CCN(c4cc(OC)ncn4)C3)CC2=O)c1 (centres undefined)	7.965	-132.6	10.44
Cc1nc(CN2CCC3(CCCN(C(=O)c4cnccn4)C3)C2)cs1.O=C(O)C(F)(F)F (centres undefined)	-	-87.71	-
Cc1cncc(C2CCN(Cc3ccsc3)CC2)n1	5.634	19.63	-1.451
Cc1nc(C)c(C)c(N(C)CCCc2nccn2C)n1	4.959	1.04	0.4068
O=C(O)C(F)(F)F.[H][C@@]12CCCO[C@]1([H])[C@H](N(C)Cc1ccco1)CN(C(=O)N(C)C)C2	-	-16.29	-
CCN1C[C@H]2C3(CCN(C(=O)NC(C)C)CC3)CC[C@@]2(C(=O)NC)C1	10	-	-4.824
CCNc1cc2c(nn1)CCN(C(=O)c1nccnc1N)C2	28.57	13.61	-5.21
Cc1cnc(C(=O)N2Cc3cc(Cl)ccc3OC3(CCOCC3)C2)cn1	5.263	-40.09	-3.072
CCN1CCOCC12CCN(c1nccs1)CC2	26	-	-8.095
Cc1nc(N2CCCC2)nc2c1CCN(C(=O)C(C)C)CC2	30.77	-0.912	0.000006
CCn1cc(CN2CCCN(C3Cc4ccccc4C3)CC2)cn1	24.59	-18.14	1.83
Cc1nc(CN2CCN(c3nc4c(s3)c(C)nn4C)CC2)cs1	16.78	3.583	2.193
COCCNC(=O)c1nnn(Cc2ccccc2)c1OC	6.897	3.67	-1.036
CN(C)C(=O)C1CN(c2ncccn2)CCN1C (centres undefined)	10	-6.125	3.594
CCc1c(C)nn2c(O)cc(C3CCN(C(=O)c4ccn(C)n4)C3)nc12 (centres undefined)	2.797	-23.54	8.812
CCOCCN1CCN(CC(O)c2ccc(OC)cc2)CC1 (centres undefined)	6.329	-17.98	-1.852
Fc1ccc(C2CCCN2Cc2nc(Cc3ccccc3F)no2)cc1 (centres undefined)	5.882	-13.25	2.389
Cc1nc(C(=O)N2CC(C)Sc3ccccc32)cs1 (centres undefined)	5.263	0.8403	-4.479
CCc1ncnc2c1CCN(C(=O)c1ccncc1F)CC2	2.941	-	-3.868
Cc1cc(C(=O)N2CCC3(CC2)COCCN(c2cccnc2)C3)[nH]n1.O=C(O)C(F)(F)F	-	-31.63	-
COc1cc(C(=O)N2CC(Oc3ccccc3Cl)C2)ccn1	22.22	-5.399	2.469
O=C(O)C(F)(F)F.[H][C@@]12CCN(c3nncs3)C[C@@]1([H])O[C@@H](C(=O)NCc1ccco1)C2	-	-27.54	-
CS(=O)(=O)c1snnc1C1CCN(Cc2ccc3nccnc3c2)CC1	8.247	25.5	-
N#Cc1ccc(CC(=O)N2CCCC(n3cccn3)C2)cc1 (centres undefined)	3.306	9.376	-1.383
Cc1nnc(CN2CCN(C(C)c3nc(C4CC4)no3)CC2)o1 (centres undefined)	11.97	-	2.896
Cn1cc(CN2CC(C(=O)Nc3ccccc3)C3(CCOCC3)C2)cn1.O=C(O)C(F)(F)F (centres undefined)	-	-45.77	-
CC(C)COCC(NC(=O)Cc1ccn[nH]1)c1ccco1 (centres undefined)	8.772	1.784	1.816
O=C(O)C(F)(F)F.O=C(O)C(F)(F)F.[H][C@@]12C[C@@H](Oc3cncnc3)CN1CCN(c1ncccn1)C2	-	-14.25	-
CC(C)C(Sc1nncn1C1CC1)C(=O)NCc1cccnc1 (centres undefined)	6.957	-5.197	0.3895
CCOCCCNC(=O)c1cn(CC)nc1C	13.59	28.33	3.216
CCOc1ncccc1C(=O)N1CCCC1c1c(C)nn(C)c1Cl (centres undefined)	3.419	-	6.985
Cn1nc(CNC(=O)C2CCCCC2)cc1C1CC1	8.989	-15.67	3.668
CC(=O)NC1CCCN(Cc2ccn(C)c(=O)c2)C1 (centres undefined)	13.89	3.485	1.07
Cc1ccccc1C(CNc1ncnc2c1CCNCC2)N(C)C (centres undefined)	5.319	-44.32	0
Cc1ncsc1CN1C[C@H](NC(=O)C2CCOCC2)[C@@H](C(C)C)C1	1.266	-9.255	2.808
COc1ccc(CC(=O)N2CCC(c3nnc4n3CCC4)CC2)cc1F	6.452	-46.24	-4.933
O=C(c1ccco1)N1CCc2onc(CN3CCCC3)c2C1	11.11	-	4.584
CCC(NC(=O)CC(F)(F)F)c1ccccc1OCC(=O)N1CCCC1 (centres undefined)	19.15	11.3	-4.38
O=C1CCCc2cc(S(=O)(=O)NCc3ccccn3)ccc2N1	4.225	-45.66	-0.5045
COc1ccc(C)cc1CN1CCOC(Cn2nc(C)nc2C)C1 (centres undefined)	14.91	12.31	-1.827
COc1ncc(C2(O)CCN(Cc3cc(F)ccc3F)CC2)c(OC)n1	-21.74	-	-
O=C(Cn1nc2ccccc2n1)N1CCCn2cncc2C1	16.39	47.08	0.6441
CCCOC1Sc2nnc(C)n2N=C1c1ccccc1 (centres undefined)	24.14	-49.56	0.571
CC(=O)N1CCC(c2nnc3ccc(C(=O)NCCN(C)C)cn23)C1 (centres undefined)	20	-53.74	-3.189
O=C(O)C(F)(F)F.[H][C@]12CCC[C@@]1(COc1ccccn1)CN(C(=O)N(C)C)C2	-	-33.88	-
N#Cc1ccc(CN2CCN(c3cncc(Cl)n3)CC2=O)cc1	6.25	-17.01	-2.167
COC[C@@H]1CCC[C@]12CN(Cc1cccc(C)n1)CCO2.O=C(O)C(F)(F)F.O=C(O)C(F)(F)F	-	-19.38	-
[H][C@@]12CCN(S(=O)(=O)CC)C[C@]1(C(=O)NC)CCO2	-	-22.99	-
CO[C@@H]1CCN(C(=O)Cc2cccc(F)c2)[C@H]1Cc1cccnc1	9.615	-	-
O=C(c1ccncc1F)N1CC2CC1(C(=O)N1CCCC1)C2	0	-	-3.924
N#Cc1ncn(CC(=O)Nc2cc(Cl)ccc2F)n1	13.33	23.79	3.372
CCc1ccc(C(=O)N2C[C@@H]3COC[C@@H](C(=O)NC)[C@@H]3C2)cc1	14.04	-	-4.581
CCOCCCNC(=O)Nc1ccc(F)c(C(N)=O)c1	15.38	-	-0.5111

Source: ChEMBL document CHEMBL3988442, “University of Dundee, Small-Polar-MMV Screening Library” (2021).